The target of the assay is glutathione-S-transferase: rhotekin Rho-binding domain fusion protein (UniProt Q8C6B2). Briefly: pull-down; Rho pulldown assay: 30 μg GST-RBD preloaded on Glutathione-Sepharose 4B beads, 600 μl cell lysate (HEK 293 lines or 1° h.AoSMCs, serum starved, treated with vehicle or U46619, with or without Cicaprost, SIN-1, FK409, BW245C, siRNA or dominant negative Gα); immunoblot with anti-RhoA; only the target purified.

Chains of the proteins cited; added tags and fusions are not shown. Lines headed by an entry give the natural chain unless they say otherwise; changes in a name come on top.
UniProt Q8C6B2: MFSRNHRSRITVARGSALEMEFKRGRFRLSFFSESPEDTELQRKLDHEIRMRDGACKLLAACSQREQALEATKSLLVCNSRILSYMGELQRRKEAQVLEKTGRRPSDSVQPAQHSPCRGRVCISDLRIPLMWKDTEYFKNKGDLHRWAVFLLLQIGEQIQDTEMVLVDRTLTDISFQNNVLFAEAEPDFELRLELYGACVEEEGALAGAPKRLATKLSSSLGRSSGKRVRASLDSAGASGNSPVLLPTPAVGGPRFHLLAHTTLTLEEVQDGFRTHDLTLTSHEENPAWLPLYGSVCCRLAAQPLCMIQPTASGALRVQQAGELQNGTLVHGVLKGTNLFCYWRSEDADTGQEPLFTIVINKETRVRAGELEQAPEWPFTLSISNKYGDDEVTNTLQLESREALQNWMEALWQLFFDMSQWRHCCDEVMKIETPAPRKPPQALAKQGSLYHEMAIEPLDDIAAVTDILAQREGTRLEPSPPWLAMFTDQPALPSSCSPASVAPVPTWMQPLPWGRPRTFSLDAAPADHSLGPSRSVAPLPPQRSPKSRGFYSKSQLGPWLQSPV
UniProt P61586: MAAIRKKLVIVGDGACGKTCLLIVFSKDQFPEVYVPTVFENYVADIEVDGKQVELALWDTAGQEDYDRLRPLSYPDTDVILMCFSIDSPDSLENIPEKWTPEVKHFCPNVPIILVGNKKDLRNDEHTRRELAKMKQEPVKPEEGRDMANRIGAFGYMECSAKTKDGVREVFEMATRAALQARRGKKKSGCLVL

No constants are given. Whether binding was seen depends on the method and setting. In cells and extracts the contact can be indirect. Binding can be weak; no strength is given.

This note sets out measurements from PMC2681257.

As to “RhoA (active, GTP-bound) (from UniProt P61586 1-193)”, the binding entry is “binds”.
